Results published in paper PMC10017463.
These are yes or no findings as the source states them, for the method shown. In cells and extracts the contact can be indirect. Some binding calls cover weakened binding; strength is not graded here.

Amino acid sequences for entries named in this document (tags omitted).
UniProt Q14247: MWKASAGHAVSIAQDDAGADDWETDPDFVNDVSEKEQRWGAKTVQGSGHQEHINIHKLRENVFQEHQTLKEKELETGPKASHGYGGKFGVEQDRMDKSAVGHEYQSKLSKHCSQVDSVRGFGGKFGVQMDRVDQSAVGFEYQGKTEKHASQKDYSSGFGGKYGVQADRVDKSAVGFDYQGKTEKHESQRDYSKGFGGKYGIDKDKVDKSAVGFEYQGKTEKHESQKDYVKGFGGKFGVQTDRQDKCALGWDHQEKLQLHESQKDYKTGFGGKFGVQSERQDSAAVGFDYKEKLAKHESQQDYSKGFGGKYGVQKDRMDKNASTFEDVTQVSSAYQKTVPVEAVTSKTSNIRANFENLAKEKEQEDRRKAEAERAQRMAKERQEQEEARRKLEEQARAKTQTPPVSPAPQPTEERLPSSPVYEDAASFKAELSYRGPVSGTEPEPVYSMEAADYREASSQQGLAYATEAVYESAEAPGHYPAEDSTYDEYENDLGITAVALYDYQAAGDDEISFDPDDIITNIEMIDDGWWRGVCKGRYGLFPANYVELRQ

T1: VE-cadherin (human (endogenous in HUVEC)) (UniProt P33151)
T1 sequence: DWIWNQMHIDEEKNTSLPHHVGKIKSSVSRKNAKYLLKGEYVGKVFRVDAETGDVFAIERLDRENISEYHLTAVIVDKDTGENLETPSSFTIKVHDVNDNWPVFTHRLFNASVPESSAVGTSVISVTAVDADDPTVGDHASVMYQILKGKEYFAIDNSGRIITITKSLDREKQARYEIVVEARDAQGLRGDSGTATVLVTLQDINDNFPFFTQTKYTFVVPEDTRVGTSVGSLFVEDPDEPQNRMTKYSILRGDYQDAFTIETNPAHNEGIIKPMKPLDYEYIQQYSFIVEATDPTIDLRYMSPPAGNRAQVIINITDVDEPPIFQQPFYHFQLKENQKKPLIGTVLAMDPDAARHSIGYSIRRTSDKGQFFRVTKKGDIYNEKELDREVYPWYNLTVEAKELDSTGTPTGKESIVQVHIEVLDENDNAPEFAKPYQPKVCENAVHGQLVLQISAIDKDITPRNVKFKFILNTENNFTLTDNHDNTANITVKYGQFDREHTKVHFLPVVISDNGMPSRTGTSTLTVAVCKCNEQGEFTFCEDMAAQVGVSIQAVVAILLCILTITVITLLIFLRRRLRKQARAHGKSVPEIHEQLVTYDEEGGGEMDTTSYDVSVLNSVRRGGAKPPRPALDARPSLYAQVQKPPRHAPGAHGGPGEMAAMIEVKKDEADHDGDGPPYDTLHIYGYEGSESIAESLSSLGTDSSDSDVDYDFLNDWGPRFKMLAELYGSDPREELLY

T2: VE-cadherin (human (endogenous in HUVEC)), P33151
T2 chain: T1 sequence

B1: β-catenin, P35222 1-781 (protein)
chain: MATQADLMELDMAMEPDRKAAVSHWQQQSYLDSGIHSGATTTAPSLSGKGNPEEEDVDTSQVLYEWEQGFSQSFTQEQVADIDGQYAMTRAQRVRAAMFPETLDEGMQIPSTQFDAAHPTNVQRLAEPSQMLKHAVVNLINYQDDAELATRAIPELTKLLNDEDQVVVNKAAVMVHQLSKKEASRHAIMRSPQMVSAIVRTMQNTNDVETARCTAGTLHNLSHHREGLLAIFKSGGIPALVKMLGSPVDSVLFYAITTLHNLLLHQEGAKMAVRLAGGLQKMVALLNKTNVKFLAITTDCLQILAYGNQESKLIILASGGPQALVNIMRTYTYEKLLWTTSRVLKVLSVCSSNKPAIVEAGGMQALGLHLTDPSQRLVQNCLWTLRNLSDAATKQEGMEGLLGTLVQLLGSDDINVVTCAAGILSNLTCNNYKNKMMVCQVGGIEALVRTVLRAGDREDITEPAICALRHLTSRHQEAEMAQNAVRLHYGLPVVVKLLHPPSHWPLIKATVGLIRNLALCPANHAPLREQGAIPRLVQLLVRAHQDTQRRTSMGGTQQQFVEGVRMEEIVEGCTGALHILARDVHNRIVIRGLNTIPLFVQLLYSPIENIQRVAAGVLCELAQDKEAAEAIEAEGATAPLTELLHSRNEGVATYAAAVLFRMSEDKPQDYKKRLSVELTSSLFRTEPMAWNETADLGLDIGAQGEPLGYRQDDPSYRSFHSGGYGQDALGMDPMMEHEMGGHHPGADYPVDGLPDLGHAQDLMDGLPPGDSNQLAWFDTDL

Tests used:
[1] = biological target: T1, VE-cadherin (human (endogenous in HUVEC)); test: co-IP; VE-cadherin precipitated from HUVEC cell lysates (shScramble, shPRKD1 stable knockdown lines, or cells treated with the PRKD inhibitor CRT0066101, 5 µM); coprecipitated partners detected by Western blot
[2] = biological target: T2, VE-cadherin (human (endogenous in …)); test: as above; details: remark: other sources report otherwise

Row | Molecule | binding [1] | binding [2]
1 | Cortactin (from UniProt Q14247 1-550) | binds | –
2 | B1 | – | binds
